In the supplement of paper PMC9254222:
Whole data set: some 1,100 compounds, median “Renilla luciferase signal (cell health) relative to plate median” near 0.97, cut for the highest 2% near 1.6. This is a selection; strong and weak results do not stand in their true shares.

Tested on: HEK293T (UBE3A T485A transfected, BAR Wnt reporter)
Test: Renilla luciferase signal (cell health) relative to plate median (fold (linear ratio)); higher = higher Renilla signal
Conditions: 24 h
Method in brief: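 Each value averages four biological replicates in HEK293T cells grown at 4500 cells/well in DMEM with 10% FBS at 37°C and 5% CO2. The cells were transfected with a BAR firefly luciferase Wnt reporter, TK-Renilla and an expression plasmid, then four hours later robotically treated with the chemicals at 0.01–100 uM for 24 h. Dual-Glo luciferase signals were median-centred per plate, with the firefly/Renilla ratio reported as Wnt activity and raw Renilla as cell health.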

Row | SMILES | Renilla luciferase signal (concentration: 0.01 uM) | Renilla luciferase signal (concentration: 0.1 uM) | Renilla luciferase signal (concentration: 1 uM) | Renilla luciferase signal (concentration: 10 uM) | Renilla luciferase signal (concentration: 100 uM)
1 | CC(C)=CC1C(C(=O)OCc2coc(Cc3ccccc3)c2)C1(C)C (configuration not stated) [Resmethrin] | 1.12 | 1.04 | 0.974 | 1.01 | 0.166
2 | CCOC(=O)C(O)(c1ccc(Cl)cc1)c1ccc(Cl)cc1 [Chlorobenzilate] | – | 0.927 | 0.837 | 0.929 | 1.26
3 | O=S(=O)([O-])C(F)(F)C(F)(F)C(F)(F)C(F)(F)F.[K+] | – | 1.06 | 0.981 | 1.11 | 1.1
4 | CC(C)N1C(=O)N(c2ccccc2)CSC1=NC(C)(C)C [Buprofezin] | 0.892 | 0.933 | 1.04 | 1.24 | 0.318
5 | COP(=O)(OC)OC(Br)C(Cl)(Cl)Br (configuration not stated) [Naled] | 1.25 | 1.18 | 1.07 | 1.08 | 0.0181
6 | CC(C)(C)OOC(C)(C)CCC(C)(C)OOC(C)(C)C [2,5-Dimethyl-2,5-di-(tert-butylperoxy)hexane] | – | 1.01 | 0.999 | 1.02 | 1.35
7 | CC(Oc1ccc(Cl)cc1Cl)C(=O)O (configuration not stated) [Dichlorprop] | 0.843 | 0.959 | 0.959 | 1.04 | 1.6
8 | CC(C)(C)CC(C)(C)c1ccc(O)cc1 [4-(1,1,3,3-Tetramethylbutyl)phenol] | – | 0.923 | 0.949 | 0.944 | 1.12
9 | CCNc1nc(Cl)nc(NC(C)(C)C#N)n1 [Cyanazine] | 1.14 | 0.998 | 1.15 | 0.955 | 0.93
10 | O=C(O)COc1ccc(Cl)cc1Cl [2,4-Dichlorophenoxyacetic acid] | – | – | – | – | 1.69
11 | CCCCN(CC)c1c([N+](=O)[O-])cc(C(F)(F)F)cc1[N+](=O)[O-] [Benfluralin] | 1.12 | 0.838 | 0.99 | 0.917 | 1.31
12 | COC(=O)NC(=S)Nc1ccccc1NC(=S)NC(=O)OC [Thiophanate-methyl] | 1.37 | 0.913 | 1 | 1.01 | 0.274
13 | COc1ccccc1N [2-Anisidine] | – | 1.14 | 1.06 | 1.24 | 1.34
14 | O=P(Oc1ccccc1)(Oc1ccccc1)Oc1ccccc1 [Triphenyl phosphate] | – | 0.815 | 0.778 | 0.825 | 1.02
15 | O=C(NC(=O)c1c(F)cccc1F)Nc1ccc(OC(F)(F)C(F)OC(F)(F)F)c(Cl)c1 (configuration not stated) [Novaluron] | 1.08 | 0.982 | 0.998 | 0.935 | 1.48
16 | CCCCCCCCOC(=O)c1ccc(C(=O)OCCCCCCCC)c(C(=O)OCCCCCCCC)c1 [Trioctyl trimellitate] | – | 1.21 | 1.15 | 1.12 | 1.36
17 | CC1(C(=O)Nc2ccc(O)c(Cl)c2Cl)CCCCC1 [Fenhexamid] | 1.18 | 0.958 | 1.03 | 1.15 | 0.372
18 | COc1cc(Cl)c(OC)cc1Cl [Chloroneb] | – | – | – | – | 1.91
19 | Clc1ccccc1Cl [1,2-Dichlorobenzene] | – | 1.14 | 0.945 | 1.05 | 1.27
20 | CC#Cc1cc(C)nc(Nc2ccccc2)n1 [Mepanipyrim] | – | 1.04 | 1.02 | 1.23 | 0.891
21 | COc1cc(OC)nc(Sc2cccc(Cl)c2C(=O)[O-])n1.[Na+] [Pyrithiobac-sodium] | – | – | – | – | 1.69
22 | CCOC(=O)CC(SP(=O)(OC)OC)C(=O)OCC (configuration not stated) [Malaoxon] | 1.23 | 1.3 | 1.17 | 1.1 | 1.49

Row | SMILES | Renilla luciferase signal (concentration: 0.01 uM) | Renilla luciferase signal (concentration: 0.1 uM) | Renilla luciferase signal (concentration: 1 uM) | Renilla luciferase signal (concentration: 10 uM) | Renilla luciferase signal (concentration: 100 uM)
23 | CCCCN(CCCC)SN(C)C(=O)Oc1cccc2c1OC(C)(C)C2 [Carbosulfan] | – | 0.808 | 0.906 | 0.941 | 1.01
24 | CCOP(=O)(SC(C)CC)N1CCSC1=O (configuration not stated) [Fosthiazate] | – | – | – | – | 1.7
25 | N#CC(Br)Br [Dibromoacetonitrile] | – | 1.11 | 1.09 | 1.07 | 1.21
26 | CC(C)(C)C(O)C(Oc1ccc(Cl)cc1)n1cncn1 (configuration not stated) [Triadimenol] | 1.01 | 0.885 | 0.844 | 0.906 | 0.699
27 | CCSC(=O)N1CCCCCC1 [Molinate] | 0.998 | 0.899 | 0.905 | 1.04 | 1.8
28 | CC(C)[C@H](C(=O)O[C@H](C#N)c1cccc(Oc2ccccc2)c1)c1ccc(Cl)cc1 [Esfenvalerate] | 0.932 | 0.969 | 0.846 | 0.908 | 0.397
29 | CC(C)N(Cc1ccccc1)C(=O)C(C)(C)C [Butam] | – | 0.847 | 0.802 | 0.836 | 0.707
30 | ClC1=C(Cl)C(Cl)(Cl)C(Cl)=C1Cl [Hexachlorocyclopentadiene] | – | 1.04 | 1.07 | 0.983 | 0.136
31 | Nc1ccc(Cl)cc1 [4-Chloroaniline] | – | 0.986 | 0.954 | 1.06 | 1.17
32 | Cc1cccc(N)c1 [3-Methylaniline] | – | 1.5 | 1.28 | 1.32 | 1.52
33 | N#Cc1nn(-c2c(Cl)cc(C(F)(F)F)cc2Cl)c(N)c1S(=O)C(F)(F)F (configuration not stated) [Fipronil] | 1.07 | 0.955 | 0.873 | 0.957 | 0.8
34 | C[N+](C)(C)CC1CO1.[Cl-] (configuration not stated) [N,N,N-Trimethyl(oxiran-2-yl)methanaminium chloride] | – | 1.28 | 1.21 | 1.25 | 1.26
35 | Clc1ccc(C(c2ccc(Cl)cc2)C(Cl)Cl)cc1 | – | 0.925 | 0.872 | 0.929 | 1.19
36 | COC(=O)c1ccccc1N [Methyl 2-aminobenzoate] | – | 1.09 | 1.07 | 1.11 | 1.51
37 | OCCN(CCO)CCO [Triethanolamine] | – | 0.958 | 0.924 | 1.03 | 0.807
38 | N#Cc1c(Cl)cccc1Cl [Dichlobenil] | 0.873 | 0.853 | 1.03 | 0.992 | 1.96
39 | CC(C)NC(=O)N1CC(=O)N(c2cc(Cl)cc(Cl)c2)C1=O [Iprodione] | 1.01 | 0.786 | 0.924 | 0.884 | 1.29
40 | CC1(C)C(C(=O)OC(C#N)c2cccc(Oc3ccccc3)c2)C1(C)C (configuration not stated) [Fenpropathrin] | 1.12 | 1.01 | 1.15 | 1.2 | 0.293
41 | CCOP(=S)(OCC)SCCSCC [Disulfoton] | 0.695 | 0.81 | 0.813 | 0.759 | 1.16
42 | CNC(=O)Oc1cccc2c1OC(C)(C)O2 [Bendiocarb] | 0.702 | 1.06 | 0.942 | 0.927 | 0.968
43 | CCOP(=S)(OCC)Oc1ccc([N+](=O)[O-])cc1 [Parathion] | 1.03 | 1.13 | 1.04 | 1.11 | 1.36
44 | COCc1cnc(C2=NC(C)(C(C)C)C(=O)N2)c(C(=O)O)c1 (configuration not stated) [Imazamox] | – | – | – | – | 2.3

Row | SMILES | Renilla luciferase signal (concentration: 0.01 uM) | Renilla luciferase signal (concentration: 0.1 uM) | Renilla luciferase signal (concentration: 1 uM) | Renilla luciferase signal (concentration: 10 uM) | Renilla luciferase signal (concentration: 100 uM)
45 | CC(C)(C)C(O)(CCc1ccc(Cl)cc1)Cn1cncn1 (configuration not stated) [Tebuconazole] | – | 0.813 | 0.788 | 0.701 | 0.0612
46 | CO[C@@H]1[C@H](OC(=O)NC(=O)CCl)CC[C@]2(CO2)[C@H]1[C@@]1(C)O[C@@H]1CC=C(C)C | – | 0.689 | 0.68 | 0.661 | 0.804
47 | CCCCC(C#N)(Cn1cncn1)c1ccc(Cl)cc1 (configuration not stated) [Myclobutanil] | 1.08 | 0.928 | 1 | 0.876 | 0.762
48 | CC(C)(C)C(=O)C(Oc1ccc(Cl)cc1)n1cncn1 (configuration not stated) [Triadimefon] | 1.42 | 0.867 | 0.961 | 1.05 | 0.777
49 | Cc1cc(C)nc(Nc2ccccc2)n1 [Pyrimethanil] | 1 | 0.904 | 1.03 | 1.09 | 1.36
50 | CN1COCN(Cc2cnc(Cl)s2)C1=N[N+](=O)[O-] [Thiamethoxam] | – | – | – | – | 2.15
51 | CCN(CC)C(=O)C(C)Oc1cccc2ccccc12 (configuration not stated) [Napropamide] | 0.925 | 0.845 | 0.951 | 0.794 | 0.718
52 | OC(c1ccc(Cl)cc1)(c1cncnc1)c1ccccc1Cl (configuration not stated) [Fenarimol] | 1.21 | 0.875 | 0.953 | 0.942 | 0.199
53 | COP(=O)(OC)SCn1c(=O)oc2cc(Cl)cnc21 [Azamethiphos] | 0.996 | 0.765 | 0.903 | 0.791 | 0.345
54 | Cc1c(COC(=O)[C@H]2[C@@H](/C=C(\Cl)C(F)(F)F)C2(C)C)cccc1-c1ccccc1 [Bifenthrin] | 0.972 | 0.726 | 0.856 | 0.897 | 0.189
55 | [Na+].[O-][Cl+][O-] [Sodium chlorite] | – | 1.07 | 0.996 | 1.06 | 1.34
56 | CCOc1cc(C(C)(C)C)ccc1C1COC(c2c(F)cccc2F)=N1 (configuration not stated) [Etoxazole] | 0.924 | 1.13 | 1.14 | 1.06 | 0.123
57 | CCNP(=S)(OC)O/C(C)=C/C(=O)OC(C)C (configuration not stated) [Propetamphos] | 0.846 | 0.913 | 1.08 | 1.07 | 1.56
58 | O=[N+]([O-])/N=C1\NCCN1Cc1ccc(Cl)nc1 [Imidacloprid] | 0.993 | 1.11 | 0.934 | 0.949 | 1.15
59 | C1=CCCC=CCCC=CCC1 [1,5,9-Cyclododecatriene] | – | 0.691 | 0.775 | 0.813 | 1.02
60 | CCCCNC(=O)OCC#CI [3-Iodo-2-propynyl-N-butylcarbamate] | 0.922 | 0.986 | 0.947 | 0.822 | 0.0151
61 | COC(=O)NS(=O)(=O)c1ccc(N)cc1 [Asulam] | – | – | – | – | 2
62 | CCCSP(=O)(OCC)SCCC [Ethoprop] | 1.13 | 0.976 | 1.08 | 1.1 | 1.86
63 | CCc1nn(C)c(C(=O)NCc2ccc(C(C)(C)C)cc2)c1Cl [Tebufenpyrad] | 1.06 | 0.931 | 0.732 | 0.359 | 0.0917
64 | Clc1ccc(C(c2ccccc2Cl)C(Cl)(Cl)Cl)cc1 (configuration not stated) | – | 1.12 | 1.01 | 1.02 | 1.24
65 | Nc1cc(Cl)cc(C(=O)O)c1Cl [Chloramben] | – | 1.02 | 1.02 | 1.18 | 1.64
